Test results published in PubChem BioAssay AID2551 (National Center for Advancing Translational Sciences (NCATS), 2010).
The campaign covered roughly 310,000 compounds. About 17,000 (5.5%) were called active. The inconclusive results got no clear call from the source; some entries with a clear call stand among them for comparison. Calls come from the whole dose curve; as a rule, active = well fitted inhibition curve with a large enough effect; inconclusive = small, poorly fitted or top-dose-only effect, or effect the other way; inactive = no such curve, though single readings can be large or run the other way. Potencies beside an inconclusive call are fits to weak or partial responses and may not hold up.

Amino acid sequences for entries named in this document (tags omitted). A change or cut given only in a name is not applied to a line headed by its entry.
UniProt P51450: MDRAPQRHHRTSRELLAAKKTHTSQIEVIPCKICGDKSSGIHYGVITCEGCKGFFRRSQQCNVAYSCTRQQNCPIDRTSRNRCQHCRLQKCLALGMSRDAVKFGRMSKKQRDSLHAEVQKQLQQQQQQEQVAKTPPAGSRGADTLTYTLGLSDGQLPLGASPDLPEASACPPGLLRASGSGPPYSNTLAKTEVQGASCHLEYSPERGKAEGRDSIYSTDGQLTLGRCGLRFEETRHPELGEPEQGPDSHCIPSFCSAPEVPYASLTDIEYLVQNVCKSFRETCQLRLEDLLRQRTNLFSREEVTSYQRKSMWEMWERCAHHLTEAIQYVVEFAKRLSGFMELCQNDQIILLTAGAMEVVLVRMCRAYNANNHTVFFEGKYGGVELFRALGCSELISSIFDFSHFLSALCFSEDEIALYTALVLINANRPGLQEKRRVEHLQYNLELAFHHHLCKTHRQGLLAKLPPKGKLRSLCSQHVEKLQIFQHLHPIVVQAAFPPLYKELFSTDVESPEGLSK

target: Nuclear receptor ROR-gamma (Mus musculus) (UniProt P51450); experiment: qHTS for inhibitors of ROR gamma transcriptional activity; settings: Drosophila S2 Gal4-RORgamma UAS-luciferase reporter, 20 h; activity change, negative = inhibition: at 53.6 µM (top of the series); note: nearly all actives have a fitted effect of over 60% in size
How it was run: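 Drosophila Schneider cells stably carrying a metallothionein-driven Gal4 DBD–ROR gamma fusion and a UAS-Photinus luciferase reporter were exposed to compound for 1 hr, then induced with copper sulfate (700 uM final) for 20 hr at ambient temperature before luminescence reading.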
% is set by controls: 0 for no effect and ±100 for the full control effect; potency is the fitted concentration of half-maximal effect.

| Compound | Potency | activity change, negative = inhibition |
| --- | --- | --- |
| CCOC(=O)CC1C(=O)NCCN1S(=O)(=O)c1ccc(Cl)cc1 (stereo unspecified) | inconclusive: 35.5 µM [activator, single point] |  |
| Cc1ccc(C)c(N2CCN(CCCNC(=O)Cn3cccc3C(=O)c3ccccc3C)CC2)c1 | inconclusive: 35.5 µM [inhibitor, single point] |  |
| O=C(CSc1nnc(-c2ccc(F)cc2)c2ccccc12)Nc1ccccc1 | inconclusive: 11.2 µM [activator, partial curve] |  |
| COCc1cccc(NC(=O)Cc2cccc3ccccc23)c1 |  | inactive: 18.6% |
| O=C(CCCN1C(=O)/C(=C/c2ccccc2Cl)SC1=S)NCCCN1CCOCC1 | active: 5.01 µM |  |
| COc1ccc2nc(NC(=O)c3ccoc3C)sc2c1 | inconclusive: 14.1 µM [inhibitor, single point] |  |
| Cc1ccc2oc(C(F)(F)C(F)F)cc(=O)c2c1 |  | inactive: 0.734% |
| CCOC(=O)N1CCN(C(=O)c2ccc3c(c2)N(Cc2cc(C)ccc2C)C(=O)c2ccccc2S3=O)CC1 (stereo unspecified) |  | inactive: 18.4% |
| Cc1cccc(C)c1NC(=S)Nc1ccc(Cl)c(Cl)c1 | active: 6.31 µM |  |
| C=CC[n+]1c(C)csc1Nc1ccc(C(=O)O)cc1 |  | inactive: 10.4% |
| Cc1ccc(NC(=O)c2ccc(-n3cccn3)c([N+](=O)[O-])c2)cc1 | inconclusive: 12.6 µM [activator, single point] |  |
| Cc1cccc(CSc2nn3c(=O)c(C)nnc3s2)c1 |  | inactive: -0.0905% |
| Cc1ccc(S(=O)(=O)CCC(=O)Nc2nc(C(C)(C)C)cs2)cc1 | inconclusive: 14.1 µM [activator, single point] |  |
| COc1ccccc1C(=O)Nc1cccc2c1CCCC2 |  | inactive: 1.5% |
| S=c1[nH]nc(CSCc2ccc(Cl)cc2Cl)n1-c1ccccc1 | active: 1.26 µM |  |
| Cc1cc(S(=O)(=O)N2CCOCC2)ccc1OCC(=O)Nc1ccc(F)cc1F |  | inactive: -24.2% |
| CCC(C(=O)OCC(=O)Nc1ccc(C(=O)Nc2ccc(OC)cc2)cc1)c1ccccc1 (stereo unspecified) | inconclusive: 31.6 µM [inhibitor, single point] |  |
| CN(C)CCN1C(=O)c2oc3ccccc3c(=O)c2C1c1cccc(Br)c1 (stereo unspecified) |  | inactive: -39.1% |
| C=CCn1cnc2scc(-c3ccc(CC)cc3)c2c1=O | inconclusive: 35.5 µM [activator, single point] |  |
| Cc1c(Cl)cccc1Nc1nc(N)nc(CSc2nc3ccccc3s2)n1 | inconclusive: 17.8 µM [inhibitor, single point] |  |
| O=C(CCC(=O)N1CCSc2ccccc21)NCc1ccc(Cl)cc1 |  | inactive: 4.78% |
| CCc1ccc(CNc2ccc(O)cc2)cc1 | inconclusive: 15.8 µM [inhibitor, single point] |  |
| CCNc1nc2c(c(=O)[nH]c(=O)n2C)n1CCCc1ccccc1 |  | inactive: 3.18% |
| CCOP(=O)(c1ccc(N(C)C)cc1)C(O)c1ccccc1F (stereo unspecified) |  | inactive: 15.3% |
| CCCCN(CC)S(=O)(=O)c1ccc(C(=O)Nc2nnc(COC)o2)cc1 | active: 1.26 µM |  |
| Cc1ccc(NS(=O)(=O)c2cc(-c3n[nH]c(=O)c4ccccc34)ccc2C)cc1 | inconclusive: 12.6 µM [activator, partial curve] |  |

| Compound | Potency | activity change, negative = inhibition |
| --- | --- | --- |
| N#C/C(=C\c1ccc(O)c(Br)c1)C(=O)N1CCCCC1 | inconclusive: 35.5 µM [activator, single point] |  |
| COCCCN(C(=O)CC1OC(=O)c2ccccc21)c1c(N)n(Cc2ccccc2)c(=O)[nH]c1=O (stereo unspecified) |  | inactive: -41.1% |
| N#Cc1ccc2nc3c(nc2c1)CCCC3 |  | inactive: 21.2% |
| CCN(CC)C(=S)NC(=O)c1cc(OC)c(OC)c(OC)c1 | inconclusive: 3.55 µM [inhibitor, single point] |  |
| CC1Cc2ccccc2N1C(=S)NC(=O)C1(C)CC1(Cl)Cl (stereo unspecified) | active: 0.631 µM |  |
| COC(=O)c1cc(N2C(=O)C3C(C2=O)C2(C)C=CC3(C)O2)ccc1Cl (stereo unspecified) | active: 3.55 µM |  |
| O=C(NCC1CCCO1)c1cccs1 (stereo unspecified) |  | inactive: -3.1% |
| CCN(CC)CCCNC(=O)c1cc(-c2ccc(O)cc2)on1 | inconclusive: 6.31 µM [inhibitor, single point] |  |
| CCNc1ncc2nc(CCc3ccccc3)c(=O)n(Cc3cccc(OC)c3)c2n1 |  | inactive: -37.4% |
| COc1ccc(Cl)cc1NC(=O)C/C(C)=N/NC(=O)Cc1ccccc1 | inconclusive: 25.1 µM [inhibitor, single point] |  |
| COC(=O)C1=C(C)N(Cc2ccccc2)C(=NCc2ccccc2)N[C@H]1c1ccccc1 | inconclusive: 35.5 µM [inhibitor, single point] |  |
| COCCn1c(C)cc(C2=NNC(=NC3CC3)SC2)c1C | active: 1.12 µM |  |
| Cc1ccc(/C=C2\SC(=S)N(CCCC(=O)Nc3cccc(C(=O)O)c3)C2=O)cc1 | inconclusive: 22.4 µM [inhibitor, single point] |  |
| Cn1nc(C(C)(C)C)cc1C(=O)Sc1cccc(Br)c1 | inconclusive: 2.82 µM [inhibitor, partial curve, poor fit] |  |
| O=C1c2ccccc2C(=O)c2c([N+](=O)[O-])ccc(O)c21 |  | inactive: -27.7% |
| CC(=O)c1cccc(NS(=O)(=O)c2ccc(N/C=C\C(=O)c3ccc(C)cc3)cc2)c1 |  | inactive: -34.8% |
| Oc1ccc(O)cc1 | active: 11.2 µM |  |
| O=C1CC(N2CCOCC2)=NN1c1ccc([N+](=O)[O-])cc1 | inconclusive: 11.2 µM [activator, partial curve] |  |
| O=C(O)c1ccc(Nc2c3ccccc3nc3ccccc23)cc1 | inconclusive: 6.31 µM [activator, single point] |  |
| COc1ccc(OC)c2[nH]c(=O)c(CCNC(=S)NC(C)(C)C)cc12 | active: 4.47 µM |  |
| CCN(Cc1ccccc1)C(=O)Cn1c(=O)n(-c2ccc(OC)cc2OC)c(=O)c2c(C)c(C)sc21 | inconclusive: 11.2 µM [activator, single point] |  |
| C=C(c1ccc(OC)cc1)c1ccc(OC)cc1 |  | inactive: 38.6% |
| Cc1ccc(-c2n[nH]c(=S)n2C)cc1 | inconclusive: 35.5 µM [inhibitor, single point] |  |
| Cc1ccc(OCC(=O)NNC(=O)c2ccoc2C)c(Br)c1 | inconclusive: 12.6 µM [activator, partial curve, poor fit] |  |
| O=C(COc1ccccc1[N+](=O)[O-])Nc1ccccc1N1CCCC1 |  | inactive: -19% |
| O=C(N/N=C\c1ccc(CNS(=O)(=O)c2ccc(Cl)cc2)o1)C(=O)Nc1ccc(Oc2ccccc2)cc1 | active: 12.6 µM |  |

Entries of single compounds from above.
COCCCN(C(=O)CC1OC(=O)c2ccccc21)c1c(N)n(Cc2ccccc2)c(=O)[nH]c1=O (stereo unspecified) is listed as activity change, negative = inhibition: inactive: -41.1%
O=C(O)c1ccc(Nc2c3ccccc3nc3ccccc23)cc1 is listed as Potency: inconclusive: 6.31 µM [activator, single point]

(more compounds)

| Compound | Potency | activity change, negative = inhibition |
| --- | --- | --- |
| CCN(CC)S(=O)(=O)c1cccc(C(=O)NC(C(=O)Nc2nnc(C3CC3)s2)C(C)C)c1 (stereo unspecified) |  | inactive: 0.599% |
| CCOCCCn1c(=O)c2ccccc2n2c(=S)[nH]nc12 | inconclusive: 15.8 µM [inhibitor, partial curve] |  |
| COc1ccc(-c2noc(CSc3nnc(Cc4ccccc4)n3-c3cccc(C)c3)n2)cc1OC |  | inactive: -0.86% |
| Cc1ccc(-c2nnc(N3CCC(C)CC3)c3ccccc23)cc1 | inconclusive: 35.5 µM [inhibitor, single point] |  |
| CCOC(=O)N1CCN(c2ccc(C(=O)c3cccc(F)c3)cc2)CC1 | inconclusive: 10 µM [activator, partial curve] |  |
| COc1ccc(Cl)cc1/C=C(\C#N)C(N)=O |  | inactive: -12.4% |
| Cc1ccc(Cn2cc(S(=O)(=O)c3ccc(C(C)C)cc3)c(=O)c3cc4c(cc32)OCO4)cc1 | inconclusive: 0.0045 µM [activator, full curve, poor fit] |  |
| COc1ccc(CCN(Cc2cc3cc(C)ccc3[nH]c2=O)C(C)=O)cc1OC |  | inactive: -5.76% |
| [N-]=[N+]=NC[C@H](Cc1ccccc1)N1CC[C@@H](OCc2ccccc2)CCC1=O | inconclusive: 8.91 µM [inhibitor, partial curve] |  |
| CC(=O)c1c(C)[nH]c(C(=O)NCCc2ccc(Cl)cc2)c1C |  | inactive: 31.9% |
| CC(=O)c1c(C)[nH]c(C(=O)COC(=O)c2ccc3c(=O)n4c(nc3c2)CCC4)c1C | inconclusive: 1.12 µM [activator, full curve] |  |
| CC/C(C)=N\Nc1nc(-c2cc3cc(OC)ccc3oc2=O)cs1 | inconclusive: 15.8 µM [inhibitor, single point] |  |
| Cn1cc(O)nc1NC(=O)Nc1cccc(Cl)c1 | inconclusive: 35.5 µM [inhibitor, single point] |  |
| Cc1cccc(NC(=O)c2ccc3ccccc3n2)n1 | inconclusive: 35.5 µM [activator, single point] |  |
| Cc1ccc(C)c(N(CC(=O)NCCSCc2ccco2)S(C)(=O)=O)c1 |  | inactive: -0.959% |
| COc1cccc(NC(=O)C2CC(=O)n3cnnc3S2)c1 (stereo unspecified) | inconclusive: 25.1 µM [inhibitor, single point] |  |
| N#C/C(=N\Nc1ccc(F)cc1)C(=N)N1CCCCC1 | inconclusive: 20 µM [inhibitor, single point] |  |
| COc1ccc(C(=O)NC(=S)Nc2ccc(S(=O)(=O)Nc3cc(OC)nc(OC)n3)cc2)cc1 | inconclusive: 5.62 µM [activator, full curve] |  |
| Cc1ccc2c(c1)c(CC(NC(=O)c1ccccc1Oc1ccccc1)C(=O)O)cn2C(=O)OCc1ccccc1 (stereo unspecified) | inconclusive: 25.1 µM [activator, single point] |  |
| CCCCn1c(=O)c(-[n+]2ccccc2)c([O-])c2ccccc21 | active: 11.2 µM |  |
| O=c1c(-c2nnc(SCc3ccc(Cl)cc3Cl)o2)cccn1Cc1ccccc1 | inconclusive: 31.6 µM [activator, single point] |  |
| Cc1cccc(/C=N/NC(=O)c2ccc(F)cc2)n1 | active: 7.08 µM |  |
| COc1cc(NC(=S)NC(=O)c2ccccc2C)ccc1NC(=O)c1cccs1 | active: 2.51 µM |  |
| CC(=O)c1ccccc1NC(=O)CSc1nnc2ccccn12 | inconclusive: 35.5 µM [activator, single point] |  |

An excerpt from above in order of count of non-hydrogen atoms, descending:

| Compound | Potency | activity change, negative = inhibition |
| --- | --- | --- |
| CCN(CC)S(=O)(=O)c1cccc(C(=O)NC(C(=O)Nc2nnc(C3CC3)s2)C(C)C)c1 (stereo unspecified) |  | inactive: 0.599% |
| O=c1c(-c2nnc(SCc3ccc(Cl)cc3Cl)o2)cccn1Cc1ccccc1 | inconclusive: 31.6 µM [activator, single point] |  |
| Cn1cc(O)nc1NC(=O)Nc1cccc(Cl)c1 | inconclusive: 35.5 µM [inhibitor, single point] |  |
